Data published in patent US20220289837A1, “Cystic Fibrosis Transmembrane Conductance Regulator Stabilizing Agents” (VIB VZW, priority 2019, published 2022).
Results are given in words; binding and its absence hold for the method and conditions named. Some binding calls cover weakened binding; strength is not graded here. Blank lines part the entries; values can stand above or below the binder they belong to.

Sequences of proteins named here, by UniProt entry; tags and fusion partners are left off. A change or cut given only in a name is not applied to a line headed by its entry.
UniProt P13569: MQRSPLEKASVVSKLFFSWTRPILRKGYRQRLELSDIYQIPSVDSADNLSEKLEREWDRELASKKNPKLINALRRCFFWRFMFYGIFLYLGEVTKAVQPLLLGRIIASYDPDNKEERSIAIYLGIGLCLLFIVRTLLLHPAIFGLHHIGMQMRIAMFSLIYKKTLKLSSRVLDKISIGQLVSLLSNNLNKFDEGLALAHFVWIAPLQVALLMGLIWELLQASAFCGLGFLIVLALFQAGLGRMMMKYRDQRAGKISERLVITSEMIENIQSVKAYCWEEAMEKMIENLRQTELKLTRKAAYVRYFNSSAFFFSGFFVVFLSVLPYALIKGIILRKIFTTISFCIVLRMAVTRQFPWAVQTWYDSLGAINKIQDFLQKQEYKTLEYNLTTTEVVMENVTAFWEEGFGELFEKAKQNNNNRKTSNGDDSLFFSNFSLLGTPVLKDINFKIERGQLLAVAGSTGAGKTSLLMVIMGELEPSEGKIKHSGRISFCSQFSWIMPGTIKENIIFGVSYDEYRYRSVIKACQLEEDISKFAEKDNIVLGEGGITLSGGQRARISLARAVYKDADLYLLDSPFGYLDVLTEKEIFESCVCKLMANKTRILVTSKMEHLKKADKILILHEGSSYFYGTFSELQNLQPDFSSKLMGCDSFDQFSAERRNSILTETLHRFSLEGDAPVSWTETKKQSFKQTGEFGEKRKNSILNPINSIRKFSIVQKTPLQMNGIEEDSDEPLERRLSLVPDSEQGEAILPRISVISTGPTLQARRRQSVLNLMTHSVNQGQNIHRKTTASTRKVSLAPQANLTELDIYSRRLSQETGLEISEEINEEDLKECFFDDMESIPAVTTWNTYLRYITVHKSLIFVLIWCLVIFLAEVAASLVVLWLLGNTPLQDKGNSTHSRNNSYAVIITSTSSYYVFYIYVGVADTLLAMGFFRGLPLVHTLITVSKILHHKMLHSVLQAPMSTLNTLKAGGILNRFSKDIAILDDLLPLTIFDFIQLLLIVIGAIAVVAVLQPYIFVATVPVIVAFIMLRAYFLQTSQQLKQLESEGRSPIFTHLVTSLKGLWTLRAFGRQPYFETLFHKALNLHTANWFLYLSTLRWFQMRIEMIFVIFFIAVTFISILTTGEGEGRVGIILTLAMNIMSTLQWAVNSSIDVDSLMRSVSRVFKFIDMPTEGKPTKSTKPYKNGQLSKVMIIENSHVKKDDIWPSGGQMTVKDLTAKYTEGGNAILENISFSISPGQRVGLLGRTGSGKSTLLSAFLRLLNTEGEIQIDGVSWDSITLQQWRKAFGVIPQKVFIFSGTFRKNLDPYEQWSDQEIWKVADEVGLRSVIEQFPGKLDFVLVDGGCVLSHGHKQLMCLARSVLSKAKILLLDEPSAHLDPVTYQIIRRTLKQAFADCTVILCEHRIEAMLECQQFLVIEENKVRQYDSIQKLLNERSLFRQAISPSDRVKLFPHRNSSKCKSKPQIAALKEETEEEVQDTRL

Legend:
[1] = target: NBD1 (nucleotide-binding domain 1 of CFTR; construct not stated) (Homo sapiens (Human)) (UniProt P13569); assay: crystal structure of the nanobody-NBD1 complex
[2] = target: NBD1 (nucleotide-binding domain 1 of CFTR; construct not stated) (Homo sapiens (Human)) (UniProt P13569); assay: structural and functional analyses, data not shown

- binding [1]: binds
B1: Nanobody T8 (VHH, not shown: small tags and cut ends)
VHH: QVQLQESGGGLVQPGGSLRLSCAASGSTSSINAMGWYRQAPGKQREPVAISSSGGDTRYAEPVKGRFTISRDNAQNKVYLQMNSLKPEDTAVYYCWLNWGRTSVNSWGQGTQVTVSS

- binding [2]: binds
B2: Nanobody G5 (VHH)
VHH: QVQLQESGGGLVQAGGSLRLACAATGSIRNINTMGWYRQAPGKQRDMVAFITRAGNTDYADSVKGRFTISRDNARNTVYLRMNSLKPEDTATYYCHAEIAERSRPFYLTDDYWGQGTQVTVSS
